We go through one substance from paper PMC9889408.

Amino acid sequences for entries named in this document (tags omitted).
UniProt P03372: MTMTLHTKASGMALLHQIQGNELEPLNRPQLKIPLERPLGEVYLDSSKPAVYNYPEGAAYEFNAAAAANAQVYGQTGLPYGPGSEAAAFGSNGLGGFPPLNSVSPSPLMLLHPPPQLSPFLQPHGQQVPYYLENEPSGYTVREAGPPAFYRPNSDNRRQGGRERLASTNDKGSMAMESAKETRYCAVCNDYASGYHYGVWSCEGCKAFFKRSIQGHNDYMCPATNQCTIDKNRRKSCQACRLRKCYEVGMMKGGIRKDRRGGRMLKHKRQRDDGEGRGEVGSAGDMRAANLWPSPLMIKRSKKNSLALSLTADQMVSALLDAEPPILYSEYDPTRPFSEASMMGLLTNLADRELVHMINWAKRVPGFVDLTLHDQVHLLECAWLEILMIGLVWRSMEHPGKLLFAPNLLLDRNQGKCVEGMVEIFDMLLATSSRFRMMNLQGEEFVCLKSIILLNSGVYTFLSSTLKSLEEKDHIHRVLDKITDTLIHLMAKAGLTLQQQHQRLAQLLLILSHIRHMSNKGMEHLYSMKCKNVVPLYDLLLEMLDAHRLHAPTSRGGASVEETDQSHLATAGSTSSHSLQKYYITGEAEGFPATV

The target of this experiment is T1, Recombinant forkhead box protein A1 (FoxA1) (UniProt P55317).
T1 sequence: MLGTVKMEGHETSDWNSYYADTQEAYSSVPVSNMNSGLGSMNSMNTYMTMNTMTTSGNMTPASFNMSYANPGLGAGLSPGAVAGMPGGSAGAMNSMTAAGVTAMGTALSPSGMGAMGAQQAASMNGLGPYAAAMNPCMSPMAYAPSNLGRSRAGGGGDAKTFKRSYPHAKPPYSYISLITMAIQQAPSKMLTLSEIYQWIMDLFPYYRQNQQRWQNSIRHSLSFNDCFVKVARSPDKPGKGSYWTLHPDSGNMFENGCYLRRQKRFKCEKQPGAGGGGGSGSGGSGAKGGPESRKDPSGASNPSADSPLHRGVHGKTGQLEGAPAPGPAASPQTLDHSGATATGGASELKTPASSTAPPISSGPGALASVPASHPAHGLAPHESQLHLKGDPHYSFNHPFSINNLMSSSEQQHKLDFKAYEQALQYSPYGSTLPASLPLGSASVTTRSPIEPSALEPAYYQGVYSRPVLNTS
Kind of experiment: immobilized template assay; recombinant FoxA1 and ERα mixed with an immobilised DNA template having the FoxA1 binding sequence; precipitated fractions analysed by western blotting; both purified. (In general: A western blot detects proteins with antibodies after separation by electrophoresis.)

Results are given in words; binding and its absence hold for the method and conditions named.

On to “Recombinant estrogen receptor alpha (ERα) (from UniProt P03372 1-595) (other; other documents disagree on this pair)”, for which the binding result is on record as “no binding”.
